Results are given in words; binding and its absence hold for the method and conditions named. In cells and extracts the contact can be indirect. Some results given as binding are weak or reduced against the parent protein; the word gives no strength.
Experiments:
[1] = biological target: Telomere Repeat Binding Factor 1 (TRF1) (human (endogenous in HeLa)) (UniProt P54274); assay: proximity ligation
[2] = biological target: Telomere Repeat Binding Factor 1 (TRF1) (human (endogenous in HeLa)) (UniProt P54274); assay: co-IP

Sequences of proteins named here, by UniProt entry; tags and fusion partners are left off.
UniProt P54274: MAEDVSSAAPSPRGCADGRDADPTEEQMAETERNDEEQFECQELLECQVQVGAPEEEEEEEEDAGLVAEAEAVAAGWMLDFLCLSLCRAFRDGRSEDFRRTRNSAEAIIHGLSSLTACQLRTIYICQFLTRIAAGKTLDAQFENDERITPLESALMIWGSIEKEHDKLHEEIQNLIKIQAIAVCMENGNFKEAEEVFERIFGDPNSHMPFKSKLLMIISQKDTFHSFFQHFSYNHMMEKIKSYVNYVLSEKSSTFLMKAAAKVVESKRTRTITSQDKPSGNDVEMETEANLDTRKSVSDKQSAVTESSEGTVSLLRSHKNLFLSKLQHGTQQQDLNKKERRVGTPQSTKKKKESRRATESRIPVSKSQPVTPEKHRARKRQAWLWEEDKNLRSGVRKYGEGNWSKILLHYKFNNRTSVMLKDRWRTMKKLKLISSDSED
UniProt P09874: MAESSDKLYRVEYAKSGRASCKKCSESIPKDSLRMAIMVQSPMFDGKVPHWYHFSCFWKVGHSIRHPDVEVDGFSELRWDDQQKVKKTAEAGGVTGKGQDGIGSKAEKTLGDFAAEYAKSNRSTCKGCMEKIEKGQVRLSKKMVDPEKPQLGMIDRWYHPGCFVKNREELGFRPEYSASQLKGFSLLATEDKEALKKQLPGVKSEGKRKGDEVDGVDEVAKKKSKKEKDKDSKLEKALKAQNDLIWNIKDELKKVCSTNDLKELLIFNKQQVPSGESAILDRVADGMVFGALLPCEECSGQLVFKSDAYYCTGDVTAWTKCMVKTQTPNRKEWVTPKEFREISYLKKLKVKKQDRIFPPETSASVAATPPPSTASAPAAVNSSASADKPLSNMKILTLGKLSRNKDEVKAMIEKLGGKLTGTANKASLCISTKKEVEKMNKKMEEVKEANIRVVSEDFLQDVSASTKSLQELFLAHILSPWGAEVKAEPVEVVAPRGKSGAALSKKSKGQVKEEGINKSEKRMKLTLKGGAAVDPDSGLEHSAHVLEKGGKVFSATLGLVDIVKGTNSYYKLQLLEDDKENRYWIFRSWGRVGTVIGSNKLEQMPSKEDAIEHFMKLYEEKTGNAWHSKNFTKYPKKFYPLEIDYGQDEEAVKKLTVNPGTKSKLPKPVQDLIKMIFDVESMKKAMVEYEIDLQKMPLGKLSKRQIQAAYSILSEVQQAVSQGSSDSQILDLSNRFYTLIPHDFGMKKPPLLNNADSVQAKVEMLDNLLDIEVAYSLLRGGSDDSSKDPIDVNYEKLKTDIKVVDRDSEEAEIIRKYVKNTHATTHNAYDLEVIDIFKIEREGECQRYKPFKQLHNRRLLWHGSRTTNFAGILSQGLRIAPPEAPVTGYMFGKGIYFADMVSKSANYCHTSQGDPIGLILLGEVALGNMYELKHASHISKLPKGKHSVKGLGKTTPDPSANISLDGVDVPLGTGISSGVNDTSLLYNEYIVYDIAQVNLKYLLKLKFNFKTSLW

Substance: Poly (ADP-ribose) polymerase 1 (PARP1) (from UniProt P09874 1-1014) (enzyme)
- binding [1]: binds
- binding [2]: binds
